Experimental data published in publication PMC11252331.
These are yes or no findings as the source states them, for the method shown. Binding can be weak; no strength is given.

Sequences of proteins named here, by UniProt entry; tags and fusion partners are left off. A change or cut given only in a name is not applied to a line headed by its entry.
UniProt Q92743: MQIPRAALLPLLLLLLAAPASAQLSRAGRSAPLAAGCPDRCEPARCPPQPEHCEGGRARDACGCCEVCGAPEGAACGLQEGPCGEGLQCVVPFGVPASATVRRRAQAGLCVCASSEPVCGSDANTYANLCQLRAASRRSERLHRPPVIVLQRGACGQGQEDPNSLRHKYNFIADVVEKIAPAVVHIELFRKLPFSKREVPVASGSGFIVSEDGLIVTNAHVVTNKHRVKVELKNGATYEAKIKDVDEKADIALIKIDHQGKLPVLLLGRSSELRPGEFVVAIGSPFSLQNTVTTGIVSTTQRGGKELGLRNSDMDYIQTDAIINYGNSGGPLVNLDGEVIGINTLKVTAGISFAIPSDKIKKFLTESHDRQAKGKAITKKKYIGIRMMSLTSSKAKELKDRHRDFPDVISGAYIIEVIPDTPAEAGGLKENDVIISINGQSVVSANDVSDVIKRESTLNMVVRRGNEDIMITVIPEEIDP

Experiments:
[1] = molecular target: ΔN HTRA1 wild type (human HTRA1 lacking the N-terminal IGFBP7-like fragment) (human) (UniProt Q92743); experiment: cross-linking; 0.5 µM HTRA1, 50 mM NaPi, 50 mM NaCl pH 8.0, 37 °C, 0.5% glutaraldehyde 2 min; silver staining or Western blot; single proteins or mixtures; both purified
[2] = molecular target: ΔN HTRA1 D174R-S328A (proteolytically inactive corrector variant) (human) (UniProt Q92743); experiment: AUC; sedimentation velocity, 2.8 mg/mL protein, 100 mM NaH2PO4, 150 mM NaCl pH 8.0, 50,000 rpm; both purified
[3] = molecular target: ΔN HTRA1 D174R-S328A (proteolytically inactive corrector variant) (human) (UniProt Q92743); experiment: SEC-MALS; Superdex 200 Increase 10/300, 2x PBS, 56 µl of 10 mg/ml protein (273 µM monomer equivalent; A173T 6.5 mg/ml, 178 µM); single proteins or D174R-S328A + R274Q mixed at a 1:1 ratio; both purified
[4] = molecular target: ΔN HTRA1 D174R-S328A (proteolytically inactive corrector variant) (human) (UniProt Q92743); experiment: SEC; analytical SEC, Agilent AdvanceBio SEC 300 Å column, 2x PBS, 10 µl of 10 mg/ml protein (273 µM monomer equivalent; A173T 6.5 mg/ml, 178 µM); single proteins or mixtures; both purified
[5] = molecular target: ΔN HTRA1 D174R-S328A (proteolytically inactive corrector variant) (human) (UniProt Q92743); experiment: cross-linking; 0.5 µM HTRA1, 50 mM NaPi, 50 mM NaCl pH 8.0, 37 °C, 0.5% glutaraldehyde 2 min; silver staining or Western blot; single proteins or mixtures; both purified
[6] = molecular target: ΔN HTRA1 D174R-S328A (proteolytically inactive corrector variant) (human) (UniProt Q92743); experiment: native MS; 200 mM ammonium acetate pH 6.8, complex formation at 0.5 to 25 µM protein; D174R-S328A (1.5 µM) titrated with R274Q; both purified

Measured: binding

ΔN HTRA1 D174R-S328A (proteolytically inactive corrector variant) (from UniProt Q92743) (domain or fragment)
binds: [1]

ΔN HTRA1 R274Q (from UniProt Q92743) (domain or fragment)
not listed: [1]
binds: all other assays above
